These are yes or no findings as the source states them, for the method shown. For some assays here: In cells and extracts the contact can be indirect. Some results given as binding are weak or reduced against the parent protein; the word gives no strength. Sequences can lack the tags named with a protein. One block for each binder: values may come before it.
What was measured:
[1] = target: mouse MNS1 (two-hybrid fusion) (mouse) (UniProt Q61884); experiment: two-hybrid; yeast two-hybrid assay of mouse MNS1 with itself; data not shown
[2] = target: T1, GST-MNS1Δ (mouse) (UniProt Q61884); experiment: pull-down; GST fusion proteins expressed in E. coli as bait; full-length MNS1 in vitro translated in the presence of [35S]methionine; GST and beads alone as controls; only the target purified
T1 sequence: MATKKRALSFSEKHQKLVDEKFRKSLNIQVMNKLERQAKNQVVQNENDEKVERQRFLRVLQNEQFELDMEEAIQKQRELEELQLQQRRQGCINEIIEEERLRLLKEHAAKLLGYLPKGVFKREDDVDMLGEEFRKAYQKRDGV

- binding [1]: binds
B1: mouse MNS1 (two-hybrid fusion) (protein, UniProt Q61884 1-491)
chain: MATKKRALSFSEKHQKLVDEKFRKSLNIQVMNKLERQAKNQVVQNENDEKVERQRFLRVLQNEQFELDMEEAIQKAEANKMLRDRQLEQEERLANELARLKHESLKDKKMRQQVRENSIELRELEQKLKAAYMNKERAAQIVEKDAMKYEQMKRDAEIERIMMEEHDRLLKEESAKQERRNKERAQYYLDLEKQLEDQERRKQEAYEQLLKEKLMIDEIVRKIYEEDQVERQQKLEKKNAIQKYIEEFQRAQDFWRQKKREEMEEENRKIIEFANIQEQREGERMARVHEIEEKRVQRQNLLMKQLEETLRQRDDLEQVRQELYQEEQAEIIKLKVKEEAELRLRRQREMKQDFEDQMALKELILQAAKEEEETFKKAMLAKFAEDDRIELMNAQKQRMKQLEHKRAVEKLIEERRSQFLADKQRELEELQLQQRRQGCINEIIEEERLRLLKEHAAKLLGYLPKGVFKREDDVDMLGEEFRKAYQKRDGV

- binding [2]: binds
B2: full-length MNS1, in vitro translated (protein, UniProt Q61884 1-491)
chain: B1 chain
modifications: [35S]methionine label
